Out of some 320,000 compounds screened, about 22,000 (6.9%) were called active. Inconclusive means that the source gave no clear call. Such entries were picked first, then a sample of the others. Calls come from the whole dose curve; as a rule, active = well fitted inhibition curve with a large enough effect; inconclusive = small, poorly fitted or top-dose-only effect, or another doubt; inactive = no such curve, though single readings can be large or run the other way. Where the call is inconclusive, the potency comes from a doubtful curve fit.
assay: Primary qHTS for delayed death inhibitors of the malarial parasite plastid, 96 hour incubation; conditions: P. falciparum luciferase reporter growth; series mostly up to 28.7 µM
Summary of the method: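 Cell-based qHTS: luciferase-tagged P. falciparum in erythrocytes (2% hematocrit, 0.05% parasitemia final) incubated with compounds for 96 hours, 37 C, 5% CO2; luciferase detection reagent then added and luminescence measured.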
Potency is the fitted concentration of half-maximal effect.

Compound	Potency
COC(=O)c1cccc(Cn2c(Cl)c(/C=N/NC(=O)c3ccccc3Cl)sc2=O)c1	active: 4.65 µM
COc1cccc(NC(=O)CCC2CCN(C(=O)c3cncs3)CC2)c1	inconclusive: 11.7 µM [inhibitor, single point]
C/C(=N\N=C(/N)SC1CC(=O)N(c2cccc(Cl)c2)C1=O)c1cccs1 (configuration not stated)	inconclusive: 14.7 µM [inhibitor, single point]
Cc1ccccc1NC(=O)NNC(=O)CCc1ccccc1	inconclusive: 8.28 µM [inhibitor, partial curve, poor fit]
COc1ccc(CCNC(=O)c2ccc(Cl)cc2)cc1	inconclusive: 3.7 µM [inhibitor, partial curve, poor fit]
NC(=O)C1CCCN(C(=O)c2ccc3nc(Cc4cccc(Cl)c4)oc3c2)C1 (configuration not stated)	inconclusive: 10.4 µM [inhibitor, partial curve, poor fit]
CCn1nc(C)cc1C(=O)N1CCCC(N2CCN(c3cccc(Cl)c3)CC2)C1 (configuration not stated)	inconclusive: 11.7 µM [inhibitor, single point]
CC(NC(=O)c1ccccc1)c1ccc(Br)cc1 (configuration not stated)	inconclusive: 5.22 µM [inhibitor, partial curve, poor fit]
Cc1ccccc1OCC(=O)NNC(=O)CN1C(=O)c2ccccc2C1=O	inconclusive: 18.5 µM [inhibitor, single point]
COc1ccc(Cl)cc1NC(=S)NCCN1CCOCC1	inactive
COc1ccc(N(CCCN2C(=O)c3cccc4cccc(c34)C2=O)C(=O)c2cccc(OC)c2)cc1	inconclusive: 18.5 µM [inhibitor, single point]
CCCn1nc2cc(C(=O)NCc3ccc4c(c3)OCO4)ccc2c1OCC	inconclusive: 10.4 µM [inhibitor, partial curve]
CC(C)n1cnc2c(=S)nc[nH]c21	inconclusive: 4.65 µM [inhibitor, partial curve, poor fit]
COc1ccccc1NC(=O)CSc1nnc(CC(=O)Nc2ccccc2F)n1C	inactive
C=CCNC(=O)c1ccccc1NC(=O)c1ccc(Cl)c(S(=O)(=O)Nc2ccccc2)c1	inconclusive: 18.5 µM [inhibitor, single point]
Cc1ccc(-n2cc(-c3ccccc3)c3c(=O)[nH]cnc32)cc1	inconclusive: 13.1 µM [inhibitor, single point]
COc1ccc(-c2cc(C(=O)NCc3cn(C)nc3C)c3ccccc3n2)cc1OC	inconclusive: 13.1 µM [inhibitor, partial curve, poor fit]
Cc1nc(N2CCC(C(N)=O)CC2)c2nnn(Cc3ccccc3)c2n1	inactive
CCOC(=O)C1=C(C(F)(F)F)Nc2ncnn2C1c1ccc(OC)c(OC)c1OC (configuration not stated)	inactive
COc1ccc(NC(=O)CSCC(=O)N2c3ccccc3CCc3ccccc32)cc1	inconclusive: 11.7 µM [inhibitor, single point]
CCOC(=O)C1CCN(C(=O)COC(=O)c2ccc([N+](=O)[O-])o2)CC1	active: 11.7 µM
O=C(NC(=S)Nc1cccc(Cl)c1Cl)C1CC1	inactive
CCOC(=O)c1c(NC(=O)C2=C(C)NC(=S)NC2c2ccc(C)cc2)sc(C)c1C (configuration not stated)	inconclusive: 18.5 µM [inhibitor, single point]
CCOC(=O)c1c(-c2ccccc2)csc1NC(=O)CSc1nncs1	inconclusive: 4.65 µM [inhibitor, partial curve, poor fit]

Compound	Potency
C[C@H](NC(=O)c1ccccc1)C(=O)N1CCN(c2ccccc2)CC1	inactive
COc1ccc(OCC(=O)NC(=S)NNC(=O)COc2ccc(Br)cc2Cl)cc1	inactive
Cc1ccc2[nH]c(=O)c3cc(C(=O)N4CCN(C(=O)c5ccco5)CC4)sc3c2c1	inconclusive: 13.1 µM [inhibitor, single point]
C(=N\NC1=Nc2cccc3cccc1c23)/c1ccccn1	inconclusive: 0.928 µM [inhibitor, full curve, poor fit]
CCC(=O)Nc1cccc(NC(=S)NC(=O)c2ccc(Cl)cc2)c1	inconclusive: 11.7 µM [inhibitor, single point]
O=C(COC(=O)CCc1ccccc1)Nc1cc([N+](=O)[O-])ccc1F	inactive
CCC(C)N(C(=O)CSc1nnc(-c2ccco2)n1C)C1CCS(=O)(=O)C1 (configuration not stated)	inactive
CCOC(=O)C1=C(C)NC(SCC(N)=O)=C(C#N)C1c1ccncc1 (configuration not stated)	inactive
CC(=O)c1[nH]c(C)c(C(C)=O)c1C	inconclusive: 0.0033 µM [inhibitor, full curve, poor fit]
O=c1[nH]c(N2CCCCC2)nc2c1CCCC2	inactive
Cc1c(Cl)cccc1NC(=S)N(CCCN1CCOCC1)Cc1cccs1	inactive
O=C(Nc1ccccc1)c1ncoc1-c1ccc(Cl)cc1	inactive
Cc1nc(-c2cccc(S(=O)(=O)N3CC(C)CC(C)C3)c2)cs1 (configuration not stated)	inconclusive: 18.5 µM [inhibitor, single point]
COc1ccc(NC2CCN(C3CC(=O)N(c4ccc(F)c(Cl)c4)C3=O)CC2)cc1 (configuration not stated)	inactive
CCOC(=O)C1CCN(C(=O)Cc2cccs2)CC1	inconclusive: 10.4 µM [inhibitor, single point]
CCOc1ccccc1/C=C(/NC(=O)c1ccccc1)C(=O)N(CC)CC	inconclusive: 18.5 µM [inhibitor, single point]
Cc1nc(N2CCN(c3ccccc3)CC2)nc2c1C(=O)CC(c1ccccc1)C2 (configuration not stated)	inactive
Cc1cccc(C)c1NC(=O)CN1C(=O)COc2ccccc21	inconclusive: 16.5 µM [inhibitor, single point]
COc1ccc(N=Cc2c[nH][nH]c2=O)cc1	inactive
CCN(CC(=O)Nc1cc(Cl)ccc1OC)CC(=O)NC1CCS(=O)(=O)C1 (configuration not stated)	inactive
COc1ccc(NS(=O)(=O)c2ccc3nc(COc4cccc5ccccc45)[nH]c3c2)cc1	inconclusive: 10.4 µM [inhibitor, partial curve]
O=C1C2CCCN2C(=O)N1CCCCN1CCN(c2ccccc2)CC1 (configuration not stated)	inactive
CCOC(=O)c1sc(NC(=O)CN2C(=O)NC3(CC(C)CC(C)(C)C3)C2=O)cc1C (configuration not stated)	active: 3.7 µM

Reformatted: results already given.
Compound,Potency
CCC(C)N(C(=O)CSc1nnc(-c2ccco2)n1C)C1CCS(=O)(=O)C1 (configuration not stated),inactive
CCN(CC(=O)Nc1cc(Cl)ccc1OC)CC(=O)NC1CCS(=O)(=O)C1 (configuration not stated),inactive
